Measured values: patent US20250263404A1, “AMINOPYRIDINES AS ACTIVATORS OF PI3 KINASE” (UCL Business Ltd, priority 2021, published 2025)
Some of these results come from one statement about several compounds together.

Sequences of proteins named here, by UniProt entry; tags and fusion partners are left off.
UniProt P42336, whole entry: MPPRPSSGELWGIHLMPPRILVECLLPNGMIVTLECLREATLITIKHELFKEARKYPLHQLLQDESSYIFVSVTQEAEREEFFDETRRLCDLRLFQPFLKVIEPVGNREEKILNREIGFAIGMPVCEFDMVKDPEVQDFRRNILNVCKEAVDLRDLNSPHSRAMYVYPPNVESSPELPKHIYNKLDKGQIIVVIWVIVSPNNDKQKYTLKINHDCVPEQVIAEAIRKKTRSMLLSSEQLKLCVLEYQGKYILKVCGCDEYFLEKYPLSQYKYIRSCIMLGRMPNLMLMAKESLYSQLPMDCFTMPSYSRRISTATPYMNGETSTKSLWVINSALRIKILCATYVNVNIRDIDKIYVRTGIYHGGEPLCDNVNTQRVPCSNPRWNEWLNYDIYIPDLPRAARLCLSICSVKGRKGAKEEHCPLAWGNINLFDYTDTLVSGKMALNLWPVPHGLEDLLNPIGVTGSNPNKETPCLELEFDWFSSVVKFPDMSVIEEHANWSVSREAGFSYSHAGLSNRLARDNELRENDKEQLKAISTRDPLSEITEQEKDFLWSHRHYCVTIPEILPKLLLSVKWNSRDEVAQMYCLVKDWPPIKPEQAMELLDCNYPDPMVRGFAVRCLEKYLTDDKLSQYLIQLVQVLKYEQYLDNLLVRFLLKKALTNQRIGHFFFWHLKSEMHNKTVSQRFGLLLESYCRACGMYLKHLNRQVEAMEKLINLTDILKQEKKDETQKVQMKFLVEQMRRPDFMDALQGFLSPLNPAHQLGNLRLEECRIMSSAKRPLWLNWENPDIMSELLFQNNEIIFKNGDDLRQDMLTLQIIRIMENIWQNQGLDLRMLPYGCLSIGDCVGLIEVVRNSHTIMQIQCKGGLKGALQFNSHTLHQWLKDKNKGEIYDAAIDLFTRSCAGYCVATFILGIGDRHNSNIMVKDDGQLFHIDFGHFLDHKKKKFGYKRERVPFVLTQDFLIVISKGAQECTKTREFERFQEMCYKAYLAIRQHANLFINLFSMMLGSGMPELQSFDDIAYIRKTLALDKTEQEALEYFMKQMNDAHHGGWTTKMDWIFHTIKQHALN

Target: PI3Kα (Homo sapiens, UniProt P42336)
Assay: ADP-Glo in vitro lipid kinase assay, PI3Kα
Format: biochemical
Parameters: Full-length p110α was expressed in a complex with full-length p85α (for biochemistry and HDX-MS); 6xHis followed by TEV protease site (N); made in house; host or cells: Spodoptera frugiperda Sf9 (baculovirus co-infection; plasmids OP831 and OP809)
Conditions: structure-activity comparison with 1938
Protocol: The effect of 1938 on the in vitro lipid kinase activity of p85α in complex with p110α, p110β or p110δ (further referred to as PI3Kα, PI3Kβ and PI3Kδ) was tested. As a positive control, a bis-phosphorylated phosphopeptide (a PDGF-receptor-derived peptide phosphorylated on Tyr-740 and Tyr-751, hereafter referred to as pY peptide) was used to mimic engagement of the p85α SH2 domains with tyrosine-phosphorylated peptides in membrane-bound receptors and adaptor proteins, known to activate the PI3Kα complex.
Kinase reactions were performed with ADP-Glo kinase assay kit (Promega Corporation). The enzyme, substrate and compounds were diluted in reaction buffer (20 mM HEPES, 50 mM NaCl, 50 mM KCl, 3 mM MgCl2, 1 mM EGTA, 1 mM TCEP, pH 7.4). Final concentrations of PI3Kα and PI3Kδ used were 25 nM and 50 nM for PI3Kβ. […]
For compound profiling, the reaction mixture contained 2 μl PI3K enzyme, 2 μl compound and/or pY and 2 μl of liposome substrate mixed with ATP. […] Luminescence was read using a Sense (Hidex) plate reader. […]
For characterisation of the effects of 1938 on in vitro PI3K enzymology, all reactions were performed at room temperature with 384 white-polystyrene plates (Corning #3574). […] For enzyme kinetic calculations, data was expressed as velocity (pmol of ADP generated/sec). […]

Structure (SMILES): CCN1CCN(c2ccc(Nc3cc(Nc4ccncn4)ccn3)cc2)CC1 [Example 2106]
- reduction in activity: > 95%

Structure (SMILES): CCN1CCN(c2ccc(Nc3nccc(Nc4cccc5c4N(C(C)=O)CC5)n3)cc2)CC1 [Example 2152]
- reduction in activity: > 95%
